Assay results from PMC7064778.
No constants are given. Whether binding was seen depends on the method and setting.

Amino acid sequences for entries named in this document (tags omitted). A change or cut given only in a name is not applied to a line headed by its entry. Residues count along the entry.
UniProt Q9I4Y4: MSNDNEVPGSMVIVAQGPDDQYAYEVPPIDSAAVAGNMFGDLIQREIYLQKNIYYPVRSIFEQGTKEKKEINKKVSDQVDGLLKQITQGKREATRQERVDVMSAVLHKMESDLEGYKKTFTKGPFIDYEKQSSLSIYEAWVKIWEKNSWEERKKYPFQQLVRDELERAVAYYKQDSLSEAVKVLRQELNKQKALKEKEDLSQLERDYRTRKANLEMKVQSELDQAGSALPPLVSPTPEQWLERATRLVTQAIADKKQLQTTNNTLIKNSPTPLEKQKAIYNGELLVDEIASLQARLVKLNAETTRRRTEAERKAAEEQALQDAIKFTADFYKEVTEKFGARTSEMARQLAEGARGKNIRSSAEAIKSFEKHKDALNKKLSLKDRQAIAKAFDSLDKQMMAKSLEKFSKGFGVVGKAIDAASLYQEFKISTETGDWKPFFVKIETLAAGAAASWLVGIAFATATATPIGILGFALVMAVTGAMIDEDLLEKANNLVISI
PyoS5_(194–315): residues 194-315 of Q9I4Y4
UniProt P42512, residues 39-720: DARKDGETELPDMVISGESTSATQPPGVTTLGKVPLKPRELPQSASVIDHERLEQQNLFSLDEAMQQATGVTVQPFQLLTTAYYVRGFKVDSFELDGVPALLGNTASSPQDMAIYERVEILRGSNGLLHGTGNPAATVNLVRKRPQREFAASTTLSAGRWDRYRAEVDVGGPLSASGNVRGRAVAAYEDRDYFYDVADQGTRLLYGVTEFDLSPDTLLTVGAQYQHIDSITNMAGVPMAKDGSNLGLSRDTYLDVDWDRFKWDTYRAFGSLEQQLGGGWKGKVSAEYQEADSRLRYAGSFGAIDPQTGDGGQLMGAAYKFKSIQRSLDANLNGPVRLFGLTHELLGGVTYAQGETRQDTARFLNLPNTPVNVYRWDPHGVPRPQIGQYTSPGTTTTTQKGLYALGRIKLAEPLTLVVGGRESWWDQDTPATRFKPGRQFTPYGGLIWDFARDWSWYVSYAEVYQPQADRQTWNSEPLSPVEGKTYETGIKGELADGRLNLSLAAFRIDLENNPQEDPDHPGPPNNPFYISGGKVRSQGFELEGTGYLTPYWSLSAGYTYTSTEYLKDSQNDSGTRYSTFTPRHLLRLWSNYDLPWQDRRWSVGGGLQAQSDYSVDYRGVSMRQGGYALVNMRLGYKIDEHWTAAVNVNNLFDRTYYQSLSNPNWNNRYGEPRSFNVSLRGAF

Assays:
[1] = molecular target: Pyocin S5 (P. aeruginosa) (UniProt Q9I4Y4); test: SEC-MALS; both purified
[2] = molecular target: PyoS5_(194–315) (P. aeruginosa) (UniProt Q9I4Y4); test: SPR; both purified

Pyocin S5 (from UniProt Q9I4Y4 1-498)
binding [1]: no binding (tested: 0.6 to 9.5 mg/ml)

ferric pyochelin transporter FptA (from UniProt P42512 39-720) (receptor)
binding [2]: no binding (tested: FptA 0.03 to 32 μM)
